Laboratory results reported in PubChem BioAssay AID758 (NMMLSC, 2007).
Hit rate of the full screen: of about 190,000 compounds, about 110 (0.058%) were called active. This list was built around the results that the source calls inconclusive (neither active nor inactive); the mix of calls is not that of the screen.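 Rule for the calls: active = fluorescent GTP binding to Rab7 beads changed by at least 20 points from the 100% baseline, either direction, mostly lower; inconclusive = compound itself probably fluorescent, or too few beads counted; inactive = the rest.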

tested on: Rab7 GTPase wild type (dog), Bodipy-FL-GTP binding; assay: modulators of GTP binding to Rab7, primary screen, biochemical, wildtype, multiplex bead flow cytometry (AID 758); settings: GST-Rab7 beads, fluorescent GTP binding, at 10 µM, actives lie on both sides, untreated = 100%, excess cold GTP = 0%;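 note: median green fluorescence of bound Bodipy-FL-GTP per Rab7 bead population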

Row | Compound | GTP binding activity (percent of control)
1 | CCCCNC(=O)NNC(=O)c1ccc(F)cc1 | inconclusive: 102%
2 | COc1cccc(-c2nc3ccc(O)cc3c(=O)o2)c1 | inconclusive: 92%
3 | O=c1ccc(NS(=O)(=O)c2ccccc2)cn1Cc1ccc(Cl)c(Cl)c1 | inconclusive: 107%
4 | CCOC(=O)c1ccc(NC(=S)N(CCCN2CCCCCC2)Cc2ccco2)cc1 | inconclusive: 99%
5 | O=C(Cn1nc(-c2ccccc2)ccc1=O)NCC1CCCO1 (stereo unspecified) | inconclusive: 90%
6 | Cc1cccc(N2CCN(CCNC(=O)c3cc4c(s3)CS(=O)(=O)C4)CC2)c1C | inconclusive: 99%
7 | NNc1nc(-c2ccccc2)cs1 | inconclusive: 116%
8 | Cc1nnc(SCC(=O)N2CCOCC2)c2ccccc12 | inconclusive: 73%
9 | Cc1ccc(Cl)cc1N1CCN(Cc2nnnn2Cc2ccco2)CC1 | inconclusive: 102%
10 | O=C(COC(=O)c1ccc(Cl)nc1)Nc1ccccc1OC(F)F | inconclusive: 105%
11 | Clc1ccc(-c2noc(CN3CCCC3)n2)cc1 | inconclusive: 105%
12 | O=C(CCNC(=O)c1ccccc1)Oc1ccc([N+](=O)[O-])cc1 | inconclusive: 96%
13 | C=CCN1C(=O)/C(=C/C=C2/N(CC)c3ccc(S(=O)(=O)N(C)C)cc3N2CC)SC1=S | inactive: 96%
14 | CCN(CC)c1ccc(/C=C(/C#N)c2nc3ccc(C)cc3[nH]2)c(OC(C)C)c1 | inconclusive: 122%
15 | CCCOc1ccc(Oc2cc(C)nc(SC)n2)nn1 | inconclusive: 105%
16 | COc1ccccc1-c1nnc(SCC(=O)Nc2nc(-c3ccccc3)cs2)n1C | inconclusive: 96%
17 | O=C(O)CC(NC(=O)C1c2ccccc2Oc2ccccc21)c1ccc(Cl)cc1 (stereo unspecified) | inactive: 101%
18 | c1ccc(-c2cnc(-c3cccnc3)o2)cc1 | inconclusive: 92%
19 | COc1cccc(N=c2oc3ccc(OC)cc3cc2-c2nc3ccccc3[nH]2)c1 | inconclusive: 92%
20 | CCOc1ccc(N(CC(=O)Nc2ccc(OC)cc2)S(=O)(=O)c2c(C)noc2C)cc1 | inconclusive: 101%
21 | Cc1ccccc1C(=O)Nc1nnc(SC(C)C)s1 | inactive: 103%
22 | CCOc1ccc(NC(=O)COc2nsnc2N2CCCCC2)cc1 | inconclusive: 103%
23 | N#Cc1ccccc1OCC(=O)OCC(=O)N1CCN(C(=O)c2ccco2)CC1 | inactive: 106%

Row | Compound | GTP binding activity (percent of control)
24 | CC1=C(C(=O)Nc2ccccc2)C(c2cccs2)NC(=O)N1 (stereo unspecified) | inactive: 109%
25 | O=S(=O)(c1ccc(S(=O)(=O)N2CCOCC2)cc1)N1CCCC1 | inactive: 96%
26 | CCOC(=O)CCCCC(=O)c1[nH]c(=O)[nH]c1CSc1nnc2c3cc(Br)ccc3n(C)c2n1 | inconclusive: 92%
27 | CC1CCCC(C)N1C(=O)Cn1c(SCC(=O)NCc2ccc3c(c2)OCO3)nc2ccccc21 (stereo unspecified) | inconclusive: 100%
28 | CCOC(=O)c1ccc(NC=C2C(=O)OC3(CCCCC3)OC2=O)cc1 | inconclusive: 95%
29 | Cc1ccc(C(=O)Nc2oc(-c3ccccc3)cc2C#N)cc1 | inconclusive: 92%
30 | CCN(CC)S(=O)(=O)c1ccc(OC)c(NC(=O)c2cc(C)on2)c1 | inconclusive: 99%
31 | O=C(N/N=C/c1ccc(Cl)c([N+](=O)[O-])c1)c1cnccn1 | inconclusive: 100%
32 | COC(=O)c1cc(NC(=O)C2CC(=O)NC(=NCc3ccc(OC)cc3)S2)cc(C(=O)OC)c1 (stereo unspecified) | inconclusive: 95%
33 | COCCn1c(SCC(=O)NCC2CCCO2)nc2c(c1=O)SC(C)C2 (stereo unspecified) | inactive: 100%
34 | CCc1ccc(NC(=O)N(CCOC)C2CCN(C(C)=O)CC2)cc1 | inactive: 93%
35 | Brc1cc(Br)c2nc(-c3ccc(N4CCOCC4)cc3)ccc2c1 | inconclusive: 90%
36 | O=C(NCC(=O)N1CCN(S(=O)(=O)/C=C/c2ccccc2)CC1)c1ccccc1F | inactive: 101%
37 | Cc1cc([N+](=O)[O-])nn1Cc1ccc(C(=O)N/N=C/c2ccc(O)cc2O)cc1 | inactive: 92%
38 | O=C(NC(Cc1ccccc1)C(=O)O)/C(=C/c1ccco1)NC(=O)c1cccc(Br)c1 (stereo unspecified) | inconclusive: 91%
39 | CC(=O)Nc1ccc(S(=O)(=O)NC2=C(N3CCN(c4ccc(F)cc4)CC3)C(=O)c3ccccc3C2=O)cc1 | inconclusive: 94%
40 | CCOc1ccc(N2C(=O)CN(CC(=O)OC)C2=S)cc1 | inactive: 97%
41 | CC(=O)Nc1ccc(NC(=O)C2CCCN2C(=O)Nc2ccccc2[N+](=O)[O-])cc1 (stereo unspecified) | inconclusive: 99%
42 | CCN(Cc1cnn(C)c1)C(=O)c1ccc(OC2CCN(S(=O)(=O)N(C)C)CC2)cc1 | inconclusive: 95%
43 | O=C(NCc1nnc(SCC(=O)N2CCCc3ccccc32)o1)c1c(F)cccc1Cl | inactive: 98%
44 | Cc1cc(C)c(S(=O)(=O)N2CCCOC2CNC(=O)C(=O)NCc2ccncc2)c(C)c1 (stereo unspecified) | inactive: 106%
45 | O=c1c2cccc3c2c(nn1-c1ccccc1)-c1ccccc1-3 | inconclusive: 92%
46 | CC1C2CC(C(S(=O)(=O)N3CCOCC3)C2=O)C1(C)C (stereo unspecified) | inconclusive: 100%

A second format for some results above.
Row	Compound	GTP binding activity (percent of control)
37	Cc1cc([N+](=O)[O-])nn1Cc1ccc(C(=O)N/N=C/c2ccc(O)cc2O)cc1	inactive: 92%
38	O=C(NC(Cc1ccccc1)C(=O)O)/C(=C/c1ccco1)NC(=O)c1cccc(Br)c1 (stereo unspecified)	inconclusive: 91%

More entries.

Row | Compound | GTP binding activity (percent of control)
47 | O=C(O)c1ccc(Oc2ccc(C(F)(F)F)cn2)cc1 | inconclusive: 92%
48 | O=c1[nH]c(=O)c2cc([N+](=O)[O-])cc([N+](=O)[O-])c2[nH]1 | inconclusive: 90%
49 | CCCCN1CNC(=S)N(c2cc(C)ccc2C)C1 | inconclusive: 101%
50 | C/C(CC(=O)Nc1cccc(C(F)(F)F)c1)=N\NC(=O)Cc1ccccc1 | inconclusive: 96%
51 | COc1cccc(NC(=O)CN2CCN(c3ccc(F)cc3)CC2)c1 | inactive: 98%
52 | COc1cc2c(cc1NCc1ccccn1)oc1ccccc12 | inactive: 102%
53 | C=CCc1c(C)nc(N)[nH]c1=O | inactive: 98%
54 | CC1=NC(=O)C(N=Nc2ccccc2)N1c1ccccc1 (stereo unspecified) | inactive: 99%
55 | COc1cccc2c(SCC(=O)N/N=C/c3ccc(O)c(O)c3)cc(C)nc12 | inactive: 89%
56 | O=C(c1cccc(S(=O)(=O)N2CCOCC2)c1)N1CCCCCC1 | inconclusive: 100%
57 | CCOc1ccccc1CN(CCc1ccc2c(c1)OCO2)Cc1ccccn1 | inconclusive: 107%
58 | O=C(O)c1cn(CCOc2ccccc2Cl)c2ccccc12 | inactive: 113%
59 | COc1ccc(NC(=S)N(CCN(C)C)C(C)c2ccco2)cc1Cl (stereo unspecified) | inconclusive: 123%
60 | COc1cc(/C=N/NC(=O)c2ccncc2)ccc1OC(=O)c1ccccc1Cl | inconclusive: 94%
61 | CC(=O)Nc1ccc(Nc2nc(Cl)nc(Nc3ccc(NC(C)=O)cc3)n2)cc1 | inactive: 102%
62 | COC(=O)CN1C(=O)C2(C(C#N)=C(N)Oc3n[nH]c(-c4cccs4)c32)c2ccccc21 (stereo unspecified) | inconclusive: 96%
63 | C/C(=N\NS(=O)(=O)c1cccc([N+](=O)[O-])c1)c1cccnc1 | inactive: 95%
64 | CC(C)(C)NC(=O)NC(=O)COC(=O)c1cccc(S(=O)(=O)N2CCCCC2)c1 | inactive: 103%
65 | COc1ccc(CC(=O)NNS(=O)(=O)c2ccccc2)cc1OC | inconclusive: 110%
66 | COC(=O)c1cc(OC)c(OC)cc1NC(=S)N1CCN(C/C=C/c2ccccc2)CC1 | inconclusive: 90%
67 | Cc1cccc2sc(NNC(=O)c3cc(=O)c4ccccc4o3)nc12 | inactive: 97%
68 | CCOc1ccc2nc(NC(=O)CSc3nc(-c4ccccc4)c(C#N)c(=O)[nH]3)sc2c1 | inactive: 95%
69 | O=C(NCc1nc2ccccc2[nH]1)c1cccc(S(=O)(=O)N2CCOCC2)c1 | inconclusive: 106%

Retrieved one by one from the entries so far, six records:
Row | Compound | GTP binding activity (percent of control)
53 | C=CCc1c(C)nc(N)[nH]c1=O | inactive: 98%
50 | C/C(CC(=O)Nc1cccc(C(F)(F)F)c1)=N\NC(=O)Cc1ccccc1 | inconclusive: 96%
61 | CC(=O)Nc1ccc(Nc2nc(Cl)nc(Nc3ccc(NC(C)=O)cc3)n2)cc1 | inactive: 102%
47 | O=C(O)c1ccc(Oc2ccc(C(F)(F)F)cn2)cc1 | inconclusive: 92%
55 | COc1cccc2c(SCC(=O)N/N=C/c3ccc(O)c(O)c3)cc(C)nc12 | inactive: 89%
59 | COc1ccc(NC(=S)N(CCN(C)C)C(C)c2ccco2)cc1Cl (stereo unspecified) | inconclusive: 123%

Following part

Row | Compound | GTP binding activity (percent of control)
70 | O=C(Oc1ccc(OC(=O)c2ccco2)c(S(=O)(=O)c2ccc(Br)cc2)c1)c1ccco1 | inconclusive: 95%
71 | Cc1ccc(/C=C2\SC(=S)N(C(Cc3ccccc3)C(=O)O)C2=O)cc1 (stereo unspecified) | inactive: 92%
72 | O=C(c1ccccc1)c1c(O)nc(-c2ccccc2)n(-c2ccccc2)c1=O | inconclusive: 92%
73 | O=c1c2cn[nH]c2[nH]c(=S)n1-c1ccccc1 | inconclusive: 98%
74 | Brc1cccc(-c2nnc3sc(CN4CCCCC4)cn23)c1 | inconclusive: 106%
75 | COc1cc2[nH]c(=S)nc(NCC3CCCO3)c2cc1OC (stereo unspecified) | inactive: 88%
76 | COc1ccc(C2CC(c3ccccc3)=NN2c2ccc(S(N)(=O)=O)cc2)cc1 (stereo unspecified) | inactive: 104%
77 | O=C(CN1C(=O)C2C3c4ccccc4C(c4ccccc43)C2C1=O)Nc1cccc(C(=O)O)c1 (stereo unspecified) | active: 145% [activator]
78 | O=C(Nc1ccc(N2CCOCC2)cc1)Nc1ccc2nc(-c3ccco3)c(-c3ccco3)nc2c1 | inconclusive: 92%
79 | COC(=O)[C@@H](NC(=O)/C=C/c1ccc(OC)cc1)C(C)C | inconclusive: 94%
80 | O=C(O)Cn1nnc(-c2cccs2)n1 | inconclusive: 109%
81 | CCN1/C(=C\C(=S)Nc2ccccc2)Sc2ccccc21 | inconclusive: 94%
82 | COc1cc(C)nc(SCC(N)=O)n1 | inconclusive: 92%
83 | Cn1c(N/N=C/c2cccs2)nc2c1c(=O)n(Cc1ccccc1)c(=O)n2C | inconclusive: 86%
84 | Cc1ccccc1-n1c(=O)cc(N2CCc3ccccc3C2)[nH]c1=O | inconclusive: 103%
85 | Cc1sc2ncnc(OCC(=O)NC(C)C)c2c1C | inconclusive: 105%
86 | CCOC(=O)C1=C(O)C(=O)N(CCCn2ccnc2)C1c1ccc(OC)cc1 (stereo unspecified) | inactive: 98%
87 | Cc1cc(Cl)ccc1NC(=S)Nc1ccccn1 | inconclusive: 100%
88 | CCOC(=O)c1cc2c(ccn2C)n1CC(=O)N1CCCC(C)C1 (stereo unspecified) | inconclusive: 96%
89 | CS(=O)(=O)N1CCN(C(=O)C2c3ccccc3Oc3ccccc32)CC1 | inactive: 103%
90 | Cc1cc(C=O)c(C)n1-c1cc(C(=O)O)cc(C(=O)O)c1 | inconclusive: 94%
91 | CCOC(=O)N1CCN(C(=O)C2CCCN(S(=O)(=O)c3ccc(C)cc3)C2)CC1 (stereo unspecified) | inconclusive: 100%
